Experimental data reported in the supplement of paper PMC9015667.
Where a name gives a salt, the structure may show the parent alone. The list shows a part of the results. Most values come without repeats; read them as rough.

Key:
Assay in all cases: reduction in cell viability relative to untreated/vehicle; higher = more growth inhibition
Details in all cases: 200 nM; 72 h
M229P = system: M229P (parental melanoma line)
M229R = system: M229R (matched melanoma line resistant to BRAF inhibitors)
M238P = system: M238P (parental melanoma line)
M238R = system: M238R (matched melanoma line resistant to BRAF inhibitors)
M249P = system: M249P (parental melanoma line)
M249R = system: M249R (matched melanoma line resistant to BRAF inhibitors)
UACC62P = system: UACC62P (parental melanoma line)
UACC62R = system: UACC62R (matched melanoma line resistant to BRAF inhibitors)

CC1COc2c(N3CCN(C)CC3)c(F)cc3c(=O)c(C(=O)O)cn1c23 (stereo not given) [Ofloxacin]
reduction in cell viability (M229P): < 0% | reduction in cell viability (M229R): < 0% | reduction in cell viability (M238P): < 0% | reduction in cell viability (M238R): < 0% | reduction in cell viability (M249P): < 0% | reduction in cell viability (M249R): < 0% | reduction in cell viability (UACC62P): < 0% | reduction in cell viability (UACC62R): < 0%

CC(C)Oc1cc(Nc2nc(N[C@@H](C)c3ccc(F)cn3)ncc2Cl)n[nH]1
reduction in cell viability (M229P): < 0% | reduction in cell viability (M229R): < 0% | reduction in cell viability (M238P): < 0% | reduction in cell viability (M238R): < 0% | reduction in cell viability (M249P): < 0% | reduction in cell viability (M249R): < 0% | reduction in cell viability (UACC62P): < 0% | reduction in cell viability (UACC62R): < 0%

CC[C@]1(O)C[C@@H]2CN(CCc3c([nH]c4ccccc34)[C@@](C(=O)OC)(c3cc4c(cc3OC)N(C)[C@H]3[C@@](O)(C(N)=O)[C@H](O)[C@]5(CC)C=CCN6CC[C@]43[C@@H]65)C2)C1 [Vindesine sulfate salt]
reduction in cell viability (M229P): 34% | reduction in cell viability (M229R): 52.8% | reduction in cell viability (M238P): 62.1% | reduction in cell viability (M238R): 56.5% | reduction in cell viability (M249P): 59.3% | reduction in cell viability (M249R): 47% | reduction in cell viability (UACC62P): 49.4% | reduction in cell viability (UACC62R): 78.5%

CC(C)C[C@@H](C=O)NC(=O)[C@H](CC(C)C)NC(=O)[C@H](CC(C)C)NC(=O)OCc1ccccc1
reduction in cell viability (M229P): 80.6% | reduction in cell viability (M229R): 58.9% | reduction in cell viability (M238P): 89.9% | reduction in cell viability (M238R): 89.9% | reduction in cell viability (M249P): 92.3% | reduction in cell viability (M249R): 91.6% | reduction in cell viability (UACC62P): 61.9% | reduction in cell viability (UACC62R): 86.5%

N#CC(c1ccnc(NCCc2cccnc2)n1)c1nc2ccccc2s1 (stereo not given) [JNK Inhibitor V]
reduction in cell viability (M229P): < 0% | reduction in cell viability (M229R): < 0% | reduction in cell viability (M238P): < 0% | reduction in cell viability (M238R): < 0% | reduction in cell viability (M249P): < 0% | reduction in cell viability (M249R): 10.5% | reduction in cell viability (UACC62P): 3.32% | reduction in cell viability (UACC62R): < 0%

CN1C(C(=O)Nc2ccccn2)=C(O)c2ccccc2S1(=O)=O [Piroxicam]
reduction in cell viability (M229P): 10.3% | reduction in cell viability (M229R): < 0% | reduction in cell viability (M238P): < 0% | reduction in cell viability (M238R): < 0% | reduction in cell viability (M249P): < 0% | reduction in cell viability (M249R): 5.07% | reduction in cell viability (UACC62P): < 0% | reduction in cell viability (UACC62R): < 0%

CCCCCCCCCCCCCCCCCCOP(=O)([O-])OC1CC[N+](C)(C)CC1 [Perifosine]
reduction in cell viability (M229P): < 0% | reduction in cell viability (M229R): < 0% | reduction in cell viability (M238P): < 0% | reduction in cell viability (M238R): < 0% | reduction in cell viability (M249P): < 0% | reduction in cell viability (M249R): < 0% | reduction in cell viability (UACC62P): 0.1% | reduction in cell viability (UACC62R): < 0%

Cc1cc(C(=O)Nc2cc(Nc3ccc4c(/C=C/c5ccccn5)n[nH]c4c3)ccc2F)n(C)n1
reduction in cell viability (M229P): < 0% | reduction in cell viability (M229R): < 0% | reduction in cell viability (M238P): < 0% | reduction in cell viability (M238R): < 0% | reduction in cell viability (M249P): < 0% | reduction in cell viability (M249R): < 0% | reduction in cell viability (UACC62P): < 0% | reduction in cell viability (UACC62R): < 0%

C[C@@H](O)[C@H](NC(=O)[C@@H]1CSSC[C@H](NC(=O)[C@H](N)Cc2ccccc2)C(=O)N[C@@H](Cc2ccc(O)cc2)C(=O)N[C@H](Cc2c[nH]c3ccccc23)C(=O)N[C@@H](CCCCN)C(=O)N1)C(N)=O
reduction in cell viability (M229P): < 0% | reduction in cell viability (M229R): < 0% | reduction in cell viability (M238P): < 0% | reduction in cell viability (M238R): < 0% | reduction in cell viability (M249P): < 0% | reduction in cell viability (M249R): < 0% | reduction in cell viability (UACC62P): < 0% | reduction in cell viability (UACC62R): < 0%

CCc1c2c(nc3ccc(OC(=O)N4CCC(N5CCCCC5)CC4)cc13)-c1cc3c(c(=O)n1C2)COC(=O)[C@]3(O)CC [Irinotecan]
reduction in cell viability (M229P): < 0% | reduction in cell viability (M229R): 13.4% | reduction in cell viability (M238P): 6.63% | reduction in cell viability (M238R): 10.4% | reduction in cell viability (M249P): 22.1% | reduction in cell viability (M249R): 28.2% | reduction in cell viability (UACC62P): 16.6% | reduction in cell viability (UACC62R): 13.1%
